The text below walks through data of PMC2681411.

Sequences of proteins named here, by UniProt entry; tags and fusion partners are left off.
UniProt Q07817: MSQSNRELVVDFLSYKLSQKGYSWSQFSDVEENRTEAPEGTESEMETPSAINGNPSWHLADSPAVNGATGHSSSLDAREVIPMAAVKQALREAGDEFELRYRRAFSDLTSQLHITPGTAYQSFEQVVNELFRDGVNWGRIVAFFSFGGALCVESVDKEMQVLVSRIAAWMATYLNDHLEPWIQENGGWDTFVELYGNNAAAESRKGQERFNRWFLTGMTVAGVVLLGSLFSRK
UniProt Q8K1M6: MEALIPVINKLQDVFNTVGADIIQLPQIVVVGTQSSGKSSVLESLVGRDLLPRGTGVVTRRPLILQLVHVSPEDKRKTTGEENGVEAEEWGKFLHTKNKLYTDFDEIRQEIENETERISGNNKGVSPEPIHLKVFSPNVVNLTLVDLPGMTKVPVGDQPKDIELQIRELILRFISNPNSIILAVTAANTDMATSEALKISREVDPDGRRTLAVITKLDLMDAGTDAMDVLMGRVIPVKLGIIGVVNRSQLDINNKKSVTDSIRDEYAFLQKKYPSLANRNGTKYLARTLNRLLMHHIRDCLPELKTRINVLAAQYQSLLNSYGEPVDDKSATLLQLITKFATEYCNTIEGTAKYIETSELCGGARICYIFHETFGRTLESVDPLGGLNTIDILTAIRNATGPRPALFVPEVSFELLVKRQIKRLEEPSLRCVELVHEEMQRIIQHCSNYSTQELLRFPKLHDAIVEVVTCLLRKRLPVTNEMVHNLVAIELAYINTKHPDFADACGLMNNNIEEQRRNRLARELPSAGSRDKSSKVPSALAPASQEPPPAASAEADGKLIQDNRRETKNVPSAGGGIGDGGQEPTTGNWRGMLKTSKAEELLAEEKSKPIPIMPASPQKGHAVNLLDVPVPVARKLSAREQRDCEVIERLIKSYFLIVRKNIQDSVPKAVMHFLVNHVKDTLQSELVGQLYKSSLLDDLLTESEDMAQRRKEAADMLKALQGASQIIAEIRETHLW

Results are given in words; binding and its absence hold for the method and conditions named. Binding seen in cells or lysates may run through a third protein. Some entries that bind do so weakly or less than the wild type.

This assay addresses FLAG-tagged BCL-XL (UniProt Q07817). The experiment in a line: co-IP; Bax-/-/Bak-/- MEFs overexpressing FLAG-Bcl-xL treated with DMSO, 100 uM BID BH3 peptide or 100 uM mutant BID BH3 peptide for 10 minutes; lysis in 50 mM Tris HCl pH 7.4, 150 mM NaCl, 1 mM EDTA, 1% Triton X-100; ANTI-FLAG M2 affinity gel overnight at 4 C; blot for DRP1; twofold more DRP1 with BID BH3 peptide than with mutant BID BH3 peptide.

Consider “dynamin-related protein 1 (DRP1) (from UniProt Q8K1M6 1-736)”, for which the binding entry is listed as “binds”.
